Results deposited as PubChem BioAssay AID1259424 (University of Nebraska Medical Center, 2018).
Screen: 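Find knockdowns that reproduce the expression shifts seen after KSR1 loss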 (primary screen). Cell system: human HCT116 colon cancer cells. Reagents: siRNA pool against human genes, 50 nM. Measurement: 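Six signature mRNAs by branched-DNA multiplex assay, scaled to two housekeeping genes and non-targeting median, log2; matched to mean KSR1 knockdown profile by Pearson correlation and euclidean distance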. Scale: mean correlation with KSR1 profile: higher = expression change more like KSR1 knockdown.
The deposit covers about 14,000 reagents; shown is a part drawn at random. 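Higher correlation or smaller distance means closer resemblance to KSR1 loss; control wells, including KSR1 knockdowns, recur on many plates.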 Further read-outs or replicates are left out here. Not given: the time to read-out.

With knock-down of CTNNBIP1 [SID364001593], the record shows mean correlation with KSR1 profile 0.363.
RGS7 [SID363994078] showed mean correlation with KSR1 profile 0.332.
After knock-down of PRM1 [SID363993919], the record shows mean correlation with KSR1 profile 0.233.
Depletion of CRCT1 [SID364001367] resulted in: mean correlation with KSR1 profile -0.722.
Depletion of IRX1 [SID364005620] gave: mean correlation with KSR1 profile 0.78.
PLA1A [SID363999704] gave mean correlation with KSR1 profile 0.133.
Silencing of METAP1 [SID363999327] came out at: mean correlation with KSR1 profile 0.22.
With knock-down of PIK3AP1 [SID364004709], the record shows mean correlation with KSR1 profile 0.193.
Against C11orf68 [SID364003633], the values are mean correlation with KSR1 profile -0.282.
With knock-down of BMP4 [SID363992490] the results were mean correlation with KSR1 profile 0.736.
MIPOL1 [SID364004574] scored mean correlation with KSR1 profile -0.578.
Against CPSF7 [SID364003078] the deposit lists mean correlation with KSR1 profile 0.689.
ART4 [SID364001988] scored mean correlation with KSR1 profile 0.165.
Against MAF1 [SID364003866], the entry reads mean correlation with KSR1 profile 0.912.
Knock-down of LENG1 [SID364002789] resulted in: mean correlation with KSR1 profile -0.27.
ATP10D [SID364001707] scored mean correlation with KSR1 profile 0.0935.
Against BEND3 [SID364005304], the values are mean correlation with KSR1 profile -0.04.
OR7A5 [SID364000327] showed mean correlation with KSR1 profile 0.207.
After knock-down of CBLL1 [SID364003081], the screen gave mean correlation with KSR1 profile 0.557.
With knock-down of SERGEF [SID363998084], the screen gave mean correlation with KSR1 profile -0.216.
For PLCD4 [SID364004139], the entry reads mean correlation with KSR1 profile 0.486.
After knock-down of GPR107 [SID364001914], the screen gave mean correlation with KSR1 profile -0.177.
After knock-down of PURB [SID364004346], the record shows mean correlation with KSR1 profile -0.141.
ELL3 [SID364003290] gave mean correlation with KSR1 profile 0.622.
Depletion of BHMT [SID363992934] gave: mean correlation with KSR1 profile 0.462.
Against SLAMF7 [SID364002068] the deposit lists mean correlation with KSR1 profile -0.467.
Against TTI2 [SID364003257] the deposit lists mean correlation with KSR1 profile 0.328.
Silencing of LSM8 [SID363999943] came out at: mean correlation with KSR1 profile -0.691.
SARM1 [SID363999289] scored mean correlation with KSR1 profile -0.105.
Knock-down of PAX3 [SID363991769] came out at: mean correlation with KSR1 profile -0.0803.
For RFX1 [SID363994072] the deposit lists mean correlation with KSR1 profile 0.262.
With knock-down of HINT2 [SID364004081] the results were mean correlation with KSR1 profile 0.547.
For TMEM175 [SID364003912], the entry reads mean correlation with KSR1 profile -0.255.
NOP53 [SID363999662] showed mean correlation with KSR1 profile -0.205.
SEL1L3 [SID363999352] showed mean correlation with KSR1 profile 0.46.
Against PRR11 [SID364000961], the values are mean correlation with KSR1 profile -0.0522.

Reformatted: results already given.
{"gene knocked down":"LENG1","PubChem SID":"SID364002789","mean correlation with KSR1 profile":-0.27}
{"gene knocked down":"ATP10D","PubChem SID":"SID364001707","mean correlation with KSR1 profile":0.0935}
